# Measurements reported in the supplement of paper PMC6411743.
# Amino acid sequences for entries named in this document (tags omitted). A change or cut given only in a name is not applied to a line headed by its entry.
# UniProt O75691: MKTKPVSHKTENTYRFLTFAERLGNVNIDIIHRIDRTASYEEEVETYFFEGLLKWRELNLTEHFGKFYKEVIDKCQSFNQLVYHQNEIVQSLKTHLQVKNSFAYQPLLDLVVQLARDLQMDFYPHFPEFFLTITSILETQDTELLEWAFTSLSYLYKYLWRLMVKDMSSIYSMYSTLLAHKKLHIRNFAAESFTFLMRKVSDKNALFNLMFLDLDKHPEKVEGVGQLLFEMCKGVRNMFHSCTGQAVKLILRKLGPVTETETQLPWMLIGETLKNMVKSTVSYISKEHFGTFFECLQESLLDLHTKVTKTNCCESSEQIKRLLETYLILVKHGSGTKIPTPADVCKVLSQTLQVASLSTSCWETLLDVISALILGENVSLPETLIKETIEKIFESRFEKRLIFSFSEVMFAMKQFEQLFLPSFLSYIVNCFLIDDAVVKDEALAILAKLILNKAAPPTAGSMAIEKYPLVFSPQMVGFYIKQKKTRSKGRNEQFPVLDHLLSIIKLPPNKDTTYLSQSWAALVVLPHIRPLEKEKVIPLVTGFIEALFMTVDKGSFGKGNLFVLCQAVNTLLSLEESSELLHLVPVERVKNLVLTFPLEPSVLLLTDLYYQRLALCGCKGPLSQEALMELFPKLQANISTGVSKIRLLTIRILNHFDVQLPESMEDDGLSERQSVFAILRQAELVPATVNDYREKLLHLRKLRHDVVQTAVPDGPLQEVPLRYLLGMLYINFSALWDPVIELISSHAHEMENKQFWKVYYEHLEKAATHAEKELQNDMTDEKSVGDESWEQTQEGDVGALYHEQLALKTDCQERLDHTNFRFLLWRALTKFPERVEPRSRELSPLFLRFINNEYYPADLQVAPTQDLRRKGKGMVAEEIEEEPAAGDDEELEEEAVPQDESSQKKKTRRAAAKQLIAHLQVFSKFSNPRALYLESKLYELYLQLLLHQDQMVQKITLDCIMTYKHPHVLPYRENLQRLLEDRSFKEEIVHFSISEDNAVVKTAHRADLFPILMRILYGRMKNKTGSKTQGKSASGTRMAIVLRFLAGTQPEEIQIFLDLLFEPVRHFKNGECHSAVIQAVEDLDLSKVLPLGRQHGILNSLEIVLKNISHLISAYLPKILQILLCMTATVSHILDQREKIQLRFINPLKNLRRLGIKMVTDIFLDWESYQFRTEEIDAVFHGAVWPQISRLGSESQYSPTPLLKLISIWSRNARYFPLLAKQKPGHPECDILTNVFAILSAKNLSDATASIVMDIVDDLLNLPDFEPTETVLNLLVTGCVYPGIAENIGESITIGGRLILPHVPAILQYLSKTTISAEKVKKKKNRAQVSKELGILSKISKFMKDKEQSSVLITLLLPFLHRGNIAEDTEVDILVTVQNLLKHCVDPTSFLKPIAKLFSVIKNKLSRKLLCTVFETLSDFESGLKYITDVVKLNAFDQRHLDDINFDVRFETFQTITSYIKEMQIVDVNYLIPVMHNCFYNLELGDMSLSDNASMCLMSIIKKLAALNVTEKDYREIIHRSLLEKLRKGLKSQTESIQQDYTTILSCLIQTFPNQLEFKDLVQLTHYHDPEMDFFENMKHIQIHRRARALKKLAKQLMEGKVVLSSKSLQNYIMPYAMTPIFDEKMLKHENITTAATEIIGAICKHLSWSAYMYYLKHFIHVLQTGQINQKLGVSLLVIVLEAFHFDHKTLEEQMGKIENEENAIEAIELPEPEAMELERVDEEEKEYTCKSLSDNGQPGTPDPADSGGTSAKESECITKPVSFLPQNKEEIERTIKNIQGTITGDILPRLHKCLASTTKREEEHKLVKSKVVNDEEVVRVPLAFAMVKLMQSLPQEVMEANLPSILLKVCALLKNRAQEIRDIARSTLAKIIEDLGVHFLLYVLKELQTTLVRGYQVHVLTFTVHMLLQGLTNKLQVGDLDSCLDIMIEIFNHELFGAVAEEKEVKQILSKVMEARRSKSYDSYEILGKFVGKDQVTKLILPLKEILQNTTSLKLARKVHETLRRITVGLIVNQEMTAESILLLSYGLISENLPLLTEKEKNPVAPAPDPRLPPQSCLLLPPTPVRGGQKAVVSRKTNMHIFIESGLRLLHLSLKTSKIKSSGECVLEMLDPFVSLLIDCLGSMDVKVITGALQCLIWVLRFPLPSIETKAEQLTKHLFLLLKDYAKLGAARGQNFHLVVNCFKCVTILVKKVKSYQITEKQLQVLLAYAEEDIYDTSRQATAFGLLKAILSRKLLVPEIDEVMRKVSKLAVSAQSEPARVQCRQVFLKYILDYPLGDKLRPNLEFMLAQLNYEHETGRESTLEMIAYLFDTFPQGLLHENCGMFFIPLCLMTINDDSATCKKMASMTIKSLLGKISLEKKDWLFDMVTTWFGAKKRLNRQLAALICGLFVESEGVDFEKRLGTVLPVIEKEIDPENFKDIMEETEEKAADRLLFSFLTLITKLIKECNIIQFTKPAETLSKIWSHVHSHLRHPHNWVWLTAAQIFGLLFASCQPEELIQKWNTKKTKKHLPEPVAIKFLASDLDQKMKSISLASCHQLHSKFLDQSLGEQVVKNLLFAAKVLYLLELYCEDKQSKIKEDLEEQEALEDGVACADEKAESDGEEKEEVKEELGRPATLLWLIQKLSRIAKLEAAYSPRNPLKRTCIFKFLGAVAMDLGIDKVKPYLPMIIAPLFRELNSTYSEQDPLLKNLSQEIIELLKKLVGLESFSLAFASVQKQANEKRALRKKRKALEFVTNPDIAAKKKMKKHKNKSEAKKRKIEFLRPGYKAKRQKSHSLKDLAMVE
# UniProt O75844: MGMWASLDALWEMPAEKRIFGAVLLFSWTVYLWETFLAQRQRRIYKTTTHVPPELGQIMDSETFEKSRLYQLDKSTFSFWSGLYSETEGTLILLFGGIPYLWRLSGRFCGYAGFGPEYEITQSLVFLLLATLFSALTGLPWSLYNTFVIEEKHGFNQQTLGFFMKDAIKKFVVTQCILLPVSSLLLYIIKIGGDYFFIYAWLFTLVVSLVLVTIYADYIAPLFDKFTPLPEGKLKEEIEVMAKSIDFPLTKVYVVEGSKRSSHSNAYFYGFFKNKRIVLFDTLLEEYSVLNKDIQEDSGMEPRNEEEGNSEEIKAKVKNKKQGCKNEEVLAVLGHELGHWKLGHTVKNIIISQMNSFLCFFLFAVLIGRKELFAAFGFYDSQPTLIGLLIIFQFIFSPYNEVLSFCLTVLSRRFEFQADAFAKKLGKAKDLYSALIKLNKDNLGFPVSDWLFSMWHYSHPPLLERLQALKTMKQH
# UniProt O94819: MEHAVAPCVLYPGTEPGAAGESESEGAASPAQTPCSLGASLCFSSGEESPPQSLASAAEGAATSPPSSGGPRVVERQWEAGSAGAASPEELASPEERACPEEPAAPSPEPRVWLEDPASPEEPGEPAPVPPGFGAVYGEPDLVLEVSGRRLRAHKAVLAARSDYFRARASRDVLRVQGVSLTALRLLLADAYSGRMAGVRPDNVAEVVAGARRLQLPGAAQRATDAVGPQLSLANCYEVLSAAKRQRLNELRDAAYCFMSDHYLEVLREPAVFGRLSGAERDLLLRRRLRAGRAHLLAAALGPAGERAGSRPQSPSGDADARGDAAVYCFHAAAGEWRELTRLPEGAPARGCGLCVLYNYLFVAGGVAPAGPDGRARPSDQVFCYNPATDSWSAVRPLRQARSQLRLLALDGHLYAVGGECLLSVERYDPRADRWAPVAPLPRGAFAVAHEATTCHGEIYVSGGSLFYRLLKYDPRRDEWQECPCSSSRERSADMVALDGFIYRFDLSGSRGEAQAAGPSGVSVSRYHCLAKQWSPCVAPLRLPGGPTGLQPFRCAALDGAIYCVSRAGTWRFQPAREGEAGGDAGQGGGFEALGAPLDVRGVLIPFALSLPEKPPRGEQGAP
# UniProt O94782: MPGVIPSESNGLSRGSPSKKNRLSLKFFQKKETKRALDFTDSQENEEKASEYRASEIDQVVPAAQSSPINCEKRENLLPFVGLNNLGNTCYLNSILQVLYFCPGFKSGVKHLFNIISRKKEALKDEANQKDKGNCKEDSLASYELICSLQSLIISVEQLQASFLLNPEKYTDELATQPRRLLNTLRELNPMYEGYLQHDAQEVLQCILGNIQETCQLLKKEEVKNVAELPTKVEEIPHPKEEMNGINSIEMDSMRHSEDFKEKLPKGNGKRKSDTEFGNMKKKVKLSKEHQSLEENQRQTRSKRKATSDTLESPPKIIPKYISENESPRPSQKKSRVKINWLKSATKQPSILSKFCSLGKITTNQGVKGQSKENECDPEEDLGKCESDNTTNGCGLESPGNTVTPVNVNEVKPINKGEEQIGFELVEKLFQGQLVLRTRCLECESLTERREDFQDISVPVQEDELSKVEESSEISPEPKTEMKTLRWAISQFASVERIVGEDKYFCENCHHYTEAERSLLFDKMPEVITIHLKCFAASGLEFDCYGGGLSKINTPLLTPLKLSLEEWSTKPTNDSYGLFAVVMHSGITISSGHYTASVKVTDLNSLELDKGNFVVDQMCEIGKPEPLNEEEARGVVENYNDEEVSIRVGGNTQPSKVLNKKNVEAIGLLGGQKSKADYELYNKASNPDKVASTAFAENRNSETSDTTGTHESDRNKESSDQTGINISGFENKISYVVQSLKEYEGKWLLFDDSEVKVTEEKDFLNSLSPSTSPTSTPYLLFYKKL
# UniProt O60942: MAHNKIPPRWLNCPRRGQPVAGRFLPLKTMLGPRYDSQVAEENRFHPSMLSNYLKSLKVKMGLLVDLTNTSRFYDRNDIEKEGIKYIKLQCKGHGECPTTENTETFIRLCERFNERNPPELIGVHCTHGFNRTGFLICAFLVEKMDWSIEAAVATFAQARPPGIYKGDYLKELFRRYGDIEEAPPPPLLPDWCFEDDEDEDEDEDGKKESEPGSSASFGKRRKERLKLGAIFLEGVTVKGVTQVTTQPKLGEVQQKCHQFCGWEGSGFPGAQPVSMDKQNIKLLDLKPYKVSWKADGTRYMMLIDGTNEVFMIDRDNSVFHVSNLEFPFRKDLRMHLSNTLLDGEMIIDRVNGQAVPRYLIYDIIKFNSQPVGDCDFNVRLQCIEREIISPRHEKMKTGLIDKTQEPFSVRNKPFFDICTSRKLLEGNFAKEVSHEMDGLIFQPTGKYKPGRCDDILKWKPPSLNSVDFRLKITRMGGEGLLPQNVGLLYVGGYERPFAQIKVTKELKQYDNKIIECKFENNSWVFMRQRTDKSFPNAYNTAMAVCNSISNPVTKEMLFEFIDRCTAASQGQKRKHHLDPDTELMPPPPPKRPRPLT
# UniProt O95376: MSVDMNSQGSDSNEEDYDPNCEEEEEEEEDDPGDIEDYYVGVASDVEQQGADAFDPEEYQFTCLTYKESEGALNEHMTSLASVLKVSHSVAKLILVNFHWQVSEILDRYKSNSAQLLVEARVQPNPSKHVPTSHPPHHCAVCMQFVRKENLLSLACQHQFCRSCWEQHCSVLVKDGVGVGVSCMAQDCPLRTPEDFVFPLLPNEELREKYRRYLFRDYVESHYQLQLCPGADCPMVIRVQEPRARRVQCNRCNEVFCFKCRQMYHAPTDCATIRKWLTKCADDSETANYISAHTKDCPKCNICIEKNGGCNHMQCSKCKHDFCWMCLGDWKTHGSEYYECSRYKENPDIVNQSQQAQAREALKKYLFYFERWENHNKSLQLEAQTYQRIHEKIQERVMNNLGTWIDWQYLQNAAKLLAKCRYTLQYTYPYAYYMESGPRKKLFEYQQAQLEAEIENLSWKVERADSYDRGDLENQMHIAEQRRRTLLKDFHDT
# UniProt O60232: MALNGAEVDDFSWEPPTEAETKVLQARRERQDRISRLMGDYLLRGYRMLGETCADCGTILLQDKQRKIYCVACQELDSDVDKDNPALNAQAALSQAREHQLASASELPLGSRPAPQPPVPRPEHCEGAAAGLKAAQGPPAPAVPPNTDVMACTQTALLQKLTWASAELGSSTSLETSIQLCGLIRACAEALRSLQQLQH
# UniProt O60496: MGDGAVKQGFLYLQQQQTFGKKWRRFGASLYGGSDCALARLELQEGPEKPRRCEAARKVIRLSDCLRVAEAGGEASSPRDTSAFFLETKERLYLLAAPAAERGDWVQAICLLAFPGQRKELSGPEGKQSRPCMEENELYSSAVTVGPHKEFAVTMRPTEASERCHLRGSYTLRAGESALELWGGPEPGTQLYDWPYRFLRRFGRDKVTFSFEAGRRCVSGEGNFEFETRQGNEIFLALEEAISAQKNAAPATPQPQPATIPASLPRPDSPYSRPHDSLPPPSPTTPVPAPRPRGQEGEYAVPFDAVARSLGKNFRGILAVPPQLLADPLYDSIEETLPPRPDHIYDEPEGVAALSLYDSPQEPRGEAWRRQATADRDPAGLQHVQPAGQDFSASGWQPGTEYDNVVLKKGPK
# UniProt O95716: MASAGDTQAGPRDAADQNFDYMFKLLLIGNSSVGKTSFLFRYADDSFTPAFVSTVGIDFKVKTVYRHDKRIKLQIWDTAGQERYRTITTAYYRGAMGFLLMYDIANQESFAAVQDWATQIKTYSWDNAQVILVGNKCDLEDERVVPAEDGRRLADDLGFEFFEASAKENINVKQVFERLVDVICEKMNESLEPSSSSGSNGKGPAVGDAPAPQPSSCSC
# ± gives the standard deviation of the averaged measurements. Only a part is listed here, and it is no random draw. Most entries show no effect beyond the scatter of the controls.
# Compound: Nc1ncnc2c1ncn2[C@@H]1O[C@H](COP(=O)(O)OP(=O)(O)NP(=O)(O)O)[C@@H](O)[C@H]1O [adenylyl imidodiphosphate]
# Test: NP40-soluble protein abundance relative to vehicle (solubility fold change) (ratio); higher = more soluble protein in presence of AMP-PNP
# Details: concentration: 0.1mM
# How it was run: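 Across three independent experiments, values are fold changes against the detergent-processed vehicle for each replicate, based on vsn-normalised intensities. The samples were Jurkat crude lysate treated with eight concentrations (0.1 to 10 mM) for 10 min at room temperature and then 3 min at 37 °C. Lysate was solubilised with 0.8% NP40 and benzonase, ultracentrifuged, and the supernatant analysed by TMT-labelled LC-MS/MS.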
row,Target,NP40-soluble protein abundance
1,SH3BP5 (UniProt O60239),1.08 ± 0.16
2,UniProt O75808 and related entries,1.013 ± 0.0059
3,UTP20 (UniProt O75691),1.02 ± 0.04
4,ZBTB7A (UniProt O95365),0.984 ± 0.029
5,ZMPSTE24 (UniProt O75844),1.01 ± 0.095
6,KBTBD11 (UniProt O94819),0.965 ± 0.01
7,UniProt O60341,1.006 ± 0.0044
8,DNAJA2 (UniProt O60884),0.986 ± 0.026
9,N4BP1 (UniProt O75113),0.978 ± 0.027
10,UniProt O60506 and related entries,1 ± 0.023

# A few values from above.
# UTP20 (UniProt O75691) | NP40-soluble protein abundance: 1.02 ± 0.04
# KBTBD11 (UniProt O94819) | NP40-soluble protein abundance: 0.965 ± 0.01

# Same assay, conditions: concentration: 0.5mM
row,Target,NP40-soluble protein abundance
1,IPO13 (UniProt O94829),0.9672 ± 0.0074
2,DNAJC13 (UniProt O75165),1.01 ± 0.062
3,USP1 (UniProt O94782),0.994 ± 0.044
4,MRPS14 (UniProt O60783),0.974 ± 0.036
5,ERLIN1 (UniProt O75477),1.02 ± 0.068
6,ENDOD1 (UniProt O94919),1.03 ± 0.027
7,RNGTT (UniProt O60942),0.975 ± 0.035
8,UniProt O95671 and related entries,1 ± 0.034
9,ARIH2 (UniProt O95376),0.989 ± 0.079
10,MAST3 (UniProt O60307),1.004 ± 0.0011
11,TRMU (UniProt O75648),0.995 ± 0.041
12,UniProt O60232,1.01 ± 0.037
13,DOK2 (UniProt O60496),1.042 ± 0.01
14,UniProt O75182 and related entries,0.986 ± 0.029
15,UniProt O75071,0.98 ± 0.021
16,UniProt O95479 and related entries,0.965 ± 0.031
17,CCDC22 (UniProt O60826),0.988 ± 0.053
18,UniProt O60343 and related entries,1 ± 0.0078
19,RAB3D (UniProt O95716),0.967 ± 0.057
